Measured values as given in patent US9174985B2, “Salts of 7-(2,3-di-p-tolyl-7,8-dihydropyrido[2,3-b]pyrazin-5(6H)-yl)heptanoic acid as IP receptor agonists” (Novartis AG, priority 2012, dated 2015).
At least one structure is not confirmed: it was looked up by name or label, or the drawing left a doubt.

Test: pH of a 1% solution/suspension in water
Assay type: physicochemical
Settings: 10 mg salt in 1 mL water, ultrasound about 5 min, stirred one hour at RT; batch B; 24.3-25.2° C.
Protocol: A mixture of 10 mg salt and 1 mL water was treated about 5 min with ultrasound. Afterwards, the mixture was stirred for one hour at RT followed by pH measurement.

Cc1ccc(-c2nc3c(nc2-c2ccc(C)cc2)N(CCCCCCC(=O)[O-])CCC3)cc1.[Na+] [Example 3, 7-(2,3-di-p-tolyl-7,8-dihydropyrido[2,3-b]pyrazin-5(6H)-yl)heptanoate sodium]
pH of a 1% solution/suspension in water: 9.16
